This assay has as its target p85α subunit of phosphatidylinositol 3-kinase (PI3K) (human (endogenous in WRO and A549)) (UniProt P27986). Description: co-IP; lysates of WRO thyroid cancer cells and A549 lung cancer cells; which protein was precipitated is not told; protocol referred to earlier papers.

Protein sequences, listed by entry. Tags and fused reporters are not part of them.
UniProt P27986: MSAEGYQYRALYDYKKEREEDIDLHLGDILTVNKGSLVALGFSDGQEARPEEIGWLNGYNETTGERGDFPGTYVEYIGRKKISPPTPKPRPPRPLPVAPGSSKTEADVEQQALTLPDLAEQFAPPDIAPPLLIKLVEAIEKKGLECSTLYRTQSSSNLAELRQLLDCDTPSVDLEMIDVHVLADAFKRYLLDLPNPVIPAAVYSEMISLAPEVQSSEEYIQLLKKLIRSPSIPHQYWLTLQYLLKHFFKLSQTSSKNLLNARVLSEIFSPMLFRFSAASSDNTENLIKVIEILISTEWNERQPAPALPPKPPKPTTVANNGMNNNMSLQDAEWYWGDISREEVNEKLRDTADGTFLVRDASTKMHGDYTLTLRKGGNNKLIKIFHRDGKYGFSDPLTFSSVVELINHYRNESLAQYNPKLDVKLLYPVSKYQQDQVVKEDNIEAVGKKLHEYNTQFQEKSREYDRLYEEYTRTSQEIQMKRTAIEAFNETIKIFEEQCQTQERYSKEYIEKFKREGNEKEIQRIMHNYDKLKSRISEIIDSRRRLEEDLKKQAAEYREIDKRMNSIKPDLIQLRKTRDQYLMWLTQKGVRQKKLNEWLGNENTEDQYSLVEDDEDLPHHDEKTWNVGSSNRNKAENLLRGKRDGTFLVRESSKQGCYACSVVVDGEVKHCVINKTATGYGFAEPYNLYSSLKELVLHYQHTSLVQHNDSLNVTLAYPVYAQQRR

No constants are given. Whether binding was seen depends on the method and setting. In cells and extracts the contact can be indirect. Some entries that bind do so weakly or less than the wild type.

B1: XB130 (protein, UniProt Q8N4X5 1-818)
chain: MERYKALEQLLTELDDFLKILDQENLSSTALVKKSCLAELLRLYTKSSSSDEEYIYMNKVTINKQQNAESQGKAPEEQGLLPNGEPSQHSSAPQKSLPDLPPPKMIPERKQLAIPKTESPEGYYEEAEPYDTSLNEDGEAVSSSYESYDEEDGSKGKSAPYQWPSPEAGIELMRDARICAFLWRKKWLGQWAKQLCVIKDNRLLCYKSSKDHSPQLDVNLLGSSVIHKEKQVRKKEHKLKITPMNADVIVLGLQSKDQAEQWLRVIQEVSGLPSEGASEGNQYTPDAQRFNCQKPDIAEKYLSASEYGSSVDGHPEVPETKDVKKKCSAGLKLSNLMNLGRKKSTSLEPVERSLETSSYLNVLVNSQWKSRWCSVRDNHLHFYQDRNRSKVAQQPLSLVGCEVVPDPSPDHLYSFRILHKGEELAKLEAKSSEEMGHWLGLLLSESGSKTDPEEFTYDYVDADRVSCIVSAAKNSLLLMQRKFSEPNTYIDGLPSQDRQEELYDDVDLSELTAAVEPTEEATPVADDPNERESDRVYLDLTPVKSFLHGPSSAQAQASSPTLSCLDNATEALPADSGPGPTPDEPCIKCPENLGEQQLESLEPEDPSLRITTVKIQTEQQRISFPPSCPDAVVATPPGASPPVKDRLRVTSAEIKLGKNRTEAEVKRYTEEKERLEKKKEEIRGHLAQLRKEKRELKETLLKCTDKEVLASLEQKLKEIDEECRGEESRRVDLELSIMEVKDNLKKAEAGPVTLGTTVDTTHLENVSPRPKAVTPASAPDCTPVNSATTLKNRPLSVVVTGKGTVLQKAKEWEKKGAS
As to B1, the binding entry is recorded as “binds”.

The record behind these values is PMC3426539.
